Holding throughout (conditions): remark: other sources report otherwise
Test [1] deals with recombinant His6-DHX15 (human), O43143. Briefly: SEC; recombinant protein alone on Superdex 200 10/300; fractions by Western blot; elution at 14.5 ml; both purified.
In test [2] the target is T1, GFP-CMTR1 wild-type (WT) (human), Q8N1G2.
T1 chain: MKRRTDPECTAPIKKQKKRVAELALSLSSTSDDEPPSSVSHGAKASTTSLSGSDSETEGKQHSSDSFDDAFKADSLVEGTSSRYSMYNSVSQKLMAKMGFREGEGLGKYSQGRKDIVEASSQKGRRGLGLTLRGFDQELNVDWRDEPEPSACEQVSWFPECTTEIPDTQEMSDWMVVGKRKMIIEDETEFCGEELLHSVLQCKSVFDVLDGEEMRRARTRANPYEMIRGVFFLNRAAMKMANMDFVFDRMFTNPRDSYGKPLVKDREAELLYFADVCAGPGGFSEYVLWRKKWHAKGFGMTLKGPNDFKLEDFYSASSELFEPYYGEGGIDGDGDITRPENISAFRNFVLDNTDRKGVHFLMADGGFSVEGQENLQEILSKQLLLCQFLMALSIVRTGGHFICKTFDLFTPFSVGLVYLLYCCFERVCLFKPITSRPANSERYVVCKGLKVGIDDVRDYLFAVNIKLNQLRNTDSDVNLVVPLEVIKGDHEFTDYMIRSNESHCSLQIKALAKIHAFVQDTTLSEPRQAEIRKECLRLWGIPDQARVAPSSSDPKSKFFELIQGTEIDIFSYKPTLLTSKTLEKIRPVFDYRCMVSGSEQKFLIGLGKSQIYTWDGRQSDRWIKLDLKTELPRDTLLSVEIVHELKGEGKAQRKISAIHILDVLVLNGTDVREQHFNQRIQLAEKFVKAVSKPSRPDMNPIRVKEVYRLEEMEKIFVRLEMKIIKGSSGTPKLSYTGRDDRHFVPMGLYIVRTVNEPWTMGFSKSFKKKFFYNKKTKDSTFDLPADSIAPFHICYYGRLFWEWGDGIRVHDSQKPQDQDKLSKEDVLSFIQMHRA
The experiment in a line: co-IP; tagged proteins expressed in HeLa cells, IP from cell extracts by the tag (anti-GFP, anti-HA or anti-FLAG), washes with lysis buffer containing 0.1 M NaCl, Western blot; RNase A treatment of the IP in Fig S6B.

The target in test [3] is T2, recombinant human CMTR1 (human), Q8N1G2.
T2 chain: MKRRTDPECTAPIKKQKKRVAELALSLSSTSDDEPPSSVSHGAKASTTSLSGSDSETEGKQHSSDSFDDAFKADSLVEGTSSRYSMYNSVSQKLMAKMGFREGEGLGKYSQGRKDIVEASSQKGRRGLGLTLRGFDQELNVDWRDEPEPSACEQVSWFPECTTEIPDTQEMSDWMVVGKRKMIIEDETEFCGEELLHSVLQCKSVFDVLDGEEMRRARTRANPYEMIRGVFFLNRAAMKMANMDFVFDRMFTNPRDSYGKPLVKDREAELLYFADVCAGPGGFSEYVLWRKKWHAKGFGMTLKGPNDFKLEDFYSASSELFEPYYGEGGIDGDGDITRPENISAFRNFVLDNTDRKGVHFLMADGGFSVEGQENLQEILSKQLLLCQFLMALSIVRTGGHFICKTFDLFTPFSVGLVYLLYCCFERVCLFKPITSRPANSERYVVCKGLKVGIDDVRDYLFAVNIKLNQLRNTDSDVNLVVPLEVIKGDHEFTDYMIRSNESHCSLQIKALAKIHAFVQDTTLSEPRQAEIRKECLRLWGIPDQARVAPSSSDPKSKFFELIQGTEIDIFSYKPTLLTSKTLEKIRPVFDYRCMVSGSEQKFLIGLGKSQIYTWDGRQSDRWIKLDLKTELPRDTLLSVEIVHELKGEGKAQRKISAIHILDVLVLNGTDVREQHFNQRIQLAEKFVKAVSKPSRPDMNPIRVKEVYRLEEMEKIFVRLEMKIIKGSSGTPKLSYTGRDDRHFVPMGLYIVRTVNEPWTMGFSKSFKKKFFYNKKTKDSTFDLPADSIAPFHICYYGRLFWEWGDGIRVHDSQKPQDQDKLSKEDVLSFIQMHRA
Briefly: SEC; recombinant protein alone on Superdex 200 10/300; fractions by Western blot; elution at 14.5 ml; both purified.

No constants are given. Whether binding was seen depends on the method and setting. For part of these data: In cells and extracts the contact can be indirect. For part of these data: Tags and fused reporters may be left off the sequences shown.

B1: recombinant His6-DHX15, O43143 1-795 (enzyme)
chain: MSKRHRLDLGEDYPSGKKRAGTDGKDRDRDRDREDRSKDRDRERDRGDREREREKEKEKELRASTNAMLISAGLPPLKASHSAHSTHSAHSTHSTHSAHSTHAGHAGHTSLPQCINPFTNLPHTPRYYDILKKRLQLPVWEYKDRFTDILVRHQSFVLVGETGSGKTTQIPQWCVEYMRSLPGPKRGVACTQPRRVAAMSVAQRVADEMDVMLGQEVGYSIRFEDCSSAKTILKYMTDGMLLREAMNDPLLERYGVIILDEAHERTLATDILMGVLKEVVRQRSDLKVIVMSATLDAGKFQIYFDNCPLLTIPGRTHPVEIFYTPEPERDYLEAAIRTVIQIHMCEEEEGDLLLFLTGQEEIDEACKRIKREVDDLGPEVGDIKIIPLYSTLPPQQQQRIFEPPPPKKQNGAIGRKVVVSTNIAETSLTIDGVVFVIDPGFAKQKVYNPRIRVESLLVTAISKASAQQRAGRAGRTRPGKCFRLYTEKAYKTEMQDNTYPEILRSNLGSVVLQLKKLGIDDLVHFDFMDPPAPETLMRALELLNYLAALNDDGDLTELGSMMAEFPLDPQLAKMVIASCDYNCSNEVLSITAMLSVPQCFVRPTEAKKAADEAKMRFAHIDGDHLTLLNVYHAFKQNHESVQWCYDNFINYRSLMSADNVRQQLSRIMDRFNLPRRSTDFTSRDYYINIRKALVTGYFMQVAHLERTGHYLTVKDNQVVQLHPSTVLDHKPEWVLYNEFVLTTKNYIRTCTDIKPEWLVKIAPQYYDMSNFPQCEAKRQLDRIIAKLQSKEYSQY
In the case of B1, the binding entry in test [1] was “no binding”.

B2: HA-CMTR1 WT, Q8N1G2 1-835 (enzyme)
chain: MKRRTDPECTAPIKKQKKRVAELALSLSSTSDDEPPSSVSHGAKASTTSLSGSDSETEGKQHSSDSFDDAFKADSLVEGTSSRYSMYNSVSQKLMAKMGFREGEGLGKYSQGRKDIVEASSQKGRRGLGLTLRGFDQELNVDWRDEPEPSACEQVSWFPECTTEIPDTQEMSDWMVVGKRKMIIEDETEFCGEELLHSVLQCKSVFDVLDGEEMRRARTRANPYEMIRGVFFLNRAAMKMANMDFVFDRMFTNPRDSYGKPLVKDREAELLYFADVCAGPGGFSEYVLWRKKWHAKGFGMTLKGPNDFKLEDFYSASSELFEPYYGEGGIDGDGDITRPENISAFRNFVLDNTDRKGVHFLMADGGFSVEGQENLQEILSKQLLLCQFLMALSIVRTGGHFICKTFDLFTPFSVGLVYLLYCCFERVCLFKPITSRPANSERYVVCKGLKVGIDDVRDYLFAVNIKLNQLRNTDSDVNLVVPLEVIKGDHEFTDYMIRSNESHCSLQIKALAKIHAFVQDTTLSEPRQAEIRKECLRLWGIPDQARVAPSSSDPKSKFFELIQGTEIDIFSYKPTLLTSKTLEKIRPVFDYRCMVSGSEQKFLIGLGKSQIYTWDGRQSDRWIKLDLKTELPRDTLLSVEIVHELKGEGKAQRKISAIHILDVLVLNGTDVREQHFNQRIQLAEKFVKAVSKPSRPDMNPIRVKEVYRLEEMEKIFVRLEMKIIKGSSGTPKLSYTGRDDRHFVPMGLYIVRTVNEPWTMGFSKSFKKKFFYNKKTKDSTFDLPADSIAPFHICYYGRLFWEWGDGIRVHDSQKPQDQDKLSKEDVLSFIQMHRA
Consider B2, for which the binding entry in test [2] is given as “no binding”.

B3: recombinant human CMTR1, Q8N1G2 1-835 (enzyme)
chain: MKRRTDPECTAPIKKQKKRVAELALSLSSTSDDEPPSSVSHGAKASTTSLSGSDSETEGKQHSSDSFDDAFKADSLVEGTSSRYSMYNSVSQKLMAKMGFREGEGLGKYSQGRKDIVEASSQKGRRGLGLTLRGFDQELNVDWRDEPEPSACEQVSWFPECTTEIPDTQEMSDWMVVGKRKMIIEDETEFCGEELLHSVLQCKSVFDVLDGEEMRRARTRANPYEMIRGVFFLNRAAMKMANMDFVFDRMFTNPRDSYGKPLVKDREAELLYFADVCAGPGGFSEYVLWRKKWHAKGFGMTLKGPNDFKLEDFYSASSELFEPYYGEGGIDGDGDITRPENISAFRNFVLDNTDRKGVHFLMADGGFSVEGQENLQEILSKQLLLCQFLMALSIVRTGGHFICKTFDLFTPFSVGLVYLLYCCFERVCLFKPITSRPANSERYVVCKGLKVGIDDVRDYLFAVNIKLNQLRNTDSDVNLVVPLEVIKGDHEFTDYMIRSNESHCSLQIKALAKIHAFVQDTTLSEPRQAEIRKECLRLWGIPDQARVAPSSSDPKSKFFELIQGTEIDIFSYKPTLLTSKTLEKIRPVFDYRCMVSGSEQKFLIGLGKSQIYTWDGRQSDRWIKLDLKTELPRDTLLSVEIVHELKGEGKAQRKISAIHILDVLVLNGTDVREQHFNQRIQLAEKFVKAVSKPSRPDMNPIRVKEVYRLEEMEKIFVRLEMKIIKGSSGTPKLSYTGRDDRHFVPMGLYIVRTVNEPWTMGFSKSFKKKFFYNKKTKDSTFDLPADSIAPFHICYYGRLFWEWGDGIRVHDSQKPQDQDKLSKEDVLSFIQMHRA
On to B3, for which, in test [3], the binding entry was “no binding”.

(Values after PMC6071836.)
